A short description of this experiment: qHTS Assay for Lipid Storage Modulators in Drosophila S3 Cells.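 On cell number change: cells counted by Cell Tracker Red CMTPX staining in the red channel.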 The conditions noted are these: BODIPY lipid droplet fluorescence, 18-24 h; for cell number change: measured here: cell count max response, cells fed with added oleic acid. In outline: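 Drosophila S3 cells got compounds at several concentrations plus oleic acid (400 uM solution). Laser-scanning cytometry with 488 nm excitation read lipid droplets at 500-530 nm and cells at 575-640 nm. Percent activity was relative to 20 uM Triacsin C.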
Background: In qHTS, concentration-response curves come from the screen itself.

[1] abbreviates: measured here: cell number channel AC50, cells fed with added oleic acid.
The mark [2] stands for this setting: measured here: lipid fluorescence (Fed channel) AC50, cells fed with added oleic acid.

Structures are written as SMILES. The list shows a part of the results. Further columns of the screen follow, without active or inactive calls. Compounds called inactive in the main read-out are mostly missing here. Potencies come from curve fits of mixed quality, noted in brackets.

These results are taken from PubChem BioAssay AID2685 (National Center for Advancing Translational Sciences (NCATS), 2010).

As to `Cc1cc(C)c2nc(N3CCC(C(=O)N4CCCC4)CC3)sc2c1`, the cell number change was -37.1%. The AC50 under setting [1] is 29.1 µM [falling, single point]. Besides, the AC50 under setting [2] is 29.1 µM [falling, single point].

In the case of `CCC1(CC)C(=O)N(C)C(=O)NC1=NCc1ccccc1`, the cell number change is -33.2%. The AC50 under setting [1] was 1.64 µM [falling, full curve, poor fit]. For the same molecule, under setting [2], the AC50 is 4.61 µM [falling, full curve]. Turning to `C/C(=N/NC(=O)C(=O)N/N=C(/C)c1ccccc1)c1ccccc1`, under setting [1], the AC50 was 0.00411 µM [rising, full curve, poor fit]. As to `COC(=O)c1ccc(Oc2nc(N(C)C)nc(N3CCOCC3)n2)cc1`, the cell number change is -18.4%. In addition, the AC50 under setting [1] is 0.103 µM [rising, full curve, poor fit]. Consider `O=C(CSc1nc2ccccc2s1)Nc1ccc2c(c1)OCO2`, for which the cell number change was -12.4%. Besides, the AC50 under setting [2] was 13 µM [rising, single point]. Turning to `CN1CCC(OC(=O)c2cccc(Cl)c2)CC1`, the cell number change turned out to be 16.6%. With `Cc1ccc(-c2csc(N(CCO)CCCn3c(C(F)(F)F)nc4cc(C(F)(F)F)ccc43)n2)cc1`, the cell number change was -34.1%. Moreover, the AC50 under setting [1] was 20.6 µM [falling, partial curve, poor fit]. Also, under setting [2], the AC50 is 20.6 µM [falling, single point]. With `O=C(CN1CCN(c2nc(-c3ccc(F)cc3)cs2)CC1)Nc1ccc2c(c1)OCO2`, the cell number change is 6.33%. In addition, the AC50 under setting [2] is 20.6 µM [rising, single point]. For `O=S(=O)(c1ccccc1)c1cnc2ccccc2c1`, the cell number change turned out to be 22.5%. Consider `OCCn1c(SCCOc2ccccc2F)nc2ccccc21`, for which the AC50 under setting [1] is 2.91 µM [rising, partial curve]. `O=C1C=C(c2ccc(-c3ccccc3)c(F)c2)C[C@@H](c2ccc(Cl)cc2)C1`: the cell number change is -44.1%. Also, under setting [1], the AC50 is 20.6 µM [falling, single point]. On to `COCCn1c(SCC#N)nnc1-c1ccc2c(c1)OCO2`, for which the cell number change is -18%. Moreover, the AC50 under setting [2] was 4.61 µM [rising, single point]. As for `COc1cc(/C=N/n2nnnc2N)ccc1O`, the cell number change is -1.38%. The AC50 under setting [2] is 10.3 µM [falling, partial curve]. Take `O=C(N/N=C/c1c(O)ccc2ccccc12)c1ccc[n+](CCO)c1`: the cell number change is -133%. Further, the AC50 under setting [1] was 23.1 µM [falling, partial curve]. Further, under setting [2], the AC50 is 23.1 µM [falling, partial curve]. For the molecule `Cc1ccc(C)c(OCCn2ccnc2)c1`, the cell number change was 11.3%. For the same molecule, the AC50 under setting [2] is 29.1 µM [falling, single point]. Turning to `CCN(CC(=O)N1CCc2ccccc2C1)S(=O)(=O)c1ccc2ccccc2c1`, the AC50 under setting [2] is 6.51 µM [falling, single point]. In the case of `COc1ccc(NC(=O)Nc2cc(C(C)(C)C)on2)cc1OC`, the cell number change was found to be 2.7%. The AC50 under setting [2] was 29.1 µM [falling, single point].

As usually defined, the AC50 is the concentration at which the activity in the assay is half-maximal.
